# Source: PubChem BioAssay AID1671190 (National Center for Advancing Translational Sciences (NCATS), 2021)
# Chains of the proteins cited; added tags and fusions are not shown.
# UniProt P18054, whole entry, looked up: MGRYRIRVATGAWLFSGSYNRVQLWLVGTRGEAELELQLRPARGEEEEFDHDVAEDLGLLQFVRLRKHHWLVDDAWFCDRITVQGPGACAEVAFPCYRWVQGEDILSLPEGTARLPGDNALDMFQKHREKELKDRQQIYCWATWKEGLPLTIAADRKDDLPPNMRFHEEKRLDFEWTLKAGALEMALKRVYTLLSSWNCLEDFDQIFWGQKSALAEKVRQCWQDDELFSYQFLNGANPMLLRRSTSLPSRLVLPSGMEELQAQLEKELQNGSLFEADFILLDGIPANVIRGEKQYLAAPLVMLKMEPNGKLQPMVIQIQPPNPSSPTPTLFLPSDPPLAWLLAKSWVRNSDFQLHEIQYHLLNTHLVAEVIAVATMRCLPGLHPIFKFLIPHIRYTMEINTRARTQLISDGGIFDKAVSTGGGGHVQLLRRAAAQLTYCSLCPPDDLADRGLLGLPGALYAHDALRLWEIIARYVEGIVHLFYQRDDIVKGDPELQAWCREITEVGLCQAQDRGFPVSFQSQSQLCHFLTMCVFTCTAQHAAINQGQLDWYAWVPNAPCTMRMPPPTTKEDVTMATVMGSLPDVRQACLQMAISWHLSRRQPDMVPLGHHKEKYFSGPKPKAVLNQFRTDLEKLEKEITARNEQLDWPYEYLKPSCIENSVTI
# “And” between values parts separate entries of the source, which are not always exact repeats. Identical values can stand only once. Hit rate of the full screen: of about 580,000 compounds, about 6,100 (1.1%) were called active. The inconclusive results got no clear call from the source; some entries with a clear call stand among them for comparison. The call rests on the fitted dose curve; in most records, active means well fitted inhibition curve with a large enough effect; inconclusive means small, poorly fitted or top-dose-only effect, or another doubt; inactive means no such curve, though single readings can be large or run the other way. Where the call is inconclusive, the potency comes from a doubtful curve fit.
# Biological target: Polyunsaturated fatty acid lipoxygenase ALOX12 (Homo sapiens) (UniProt P18054)
# Test: Primary qHTS assay for inhibitors of human arachidonate 12S-lipoxygenase (ALOX12): Round 2
# Conditions: purified 12hLO, xylenol orange hydroperoxide absorbance; activity change, negative = inhibition: at 108 µM (top of the series) unless noted
# How it was run: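 Hydroperoxide product was detected by ferrous iron/xylenol orange as the 573 to 405 nm absorbance ratio. Arachidonic acid at 40 uM (final) was turned over for 30 min at room temperature by 150 nM human 12hLO, pH 7.0 Hepes buffer, after 15 min compound preincubation.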
# On the % scale 0 is the no-effect control and ±100 the full control effect; potency means the concentration at half of the fitted maximal effect.
SMILES,Potency,"activity change, negative = inhibition"
CCC(C)(C)c1cc(O)c(C(C)(C)CC)cc1O,"inconclusive: 10 µM [inhibitor, partial curve, poor fit]",
Cc1nc(-c2ccc(Cl)cc2)sc1C(=O)CBr,"inconclusive: 39.8 µM [inhibitor, partial curve, poor fit]",
CCc1nc2c(OCc3ccc(C(F)(F)F)cc3)cccn2c1N(C)C(=O)c1ccc(C)cc1,"inconclusive: 89.1 µM [inhibitor, partial curve, poor fit]",
CCCSc1ncc(Cl)c(C(=O)Nc2sc3c(c2C(N)=O)CCCC3)n1,inactive,
CCOC(=O)C(C)On1c(-c2ccccc2)nc2ccc([N+](=O)[O-])cc21 (stereo unspecified),"inconclusive: 112 µM [inhibitor, single point]",
CC(=O)Nc1ccc(-c2csc(NC(=O)C3=COCCO3)n2)cc1,"inconclusive: 112 µM [inhibitor, partial curve, poor fit]",
O=C(OCC(O)CO)c1ccccc1Nc1ccnc2cc(Cl)ccc12 (stereo unspecified),"inconclusive: 11.4 µM [inhibitor, partial curve, poor fit] and inconclusive: 50.1 µM [inhibitor, partial curve, poor fit]",
C=CCNC(=O)Cc1ccc(N(Cc2ccc(C)cc2)C(=O)c2ccco2)cc1,"inconclusive: 20 µM [inhibitor, full curve]",
CC(=O)OCC1=C(C(=O)O)N2C(=O)C(NC(=O)CCn3nc(C(F)(F)F)c(Br)c3C3CC3)C2SC1 (stereo unspecified),active: 35.5 µM,
CCOc1ccc(CN(C)C(=O)NC(c2ccc3c(c2)OCCCO3)C(C)C)cc1 (stereo unspecified),inactive,
N#CCCN1CCN(C(C(=O)O)c2cn(CC(=O)O)c3ccc(Br)cc23)CC1 (stereo unspecified),"inconclusive: 31.6 µM [inhibitor, partial curve, poor fit]",
Cn1c(=O)n(Cc2nc(-c3ccccc3)no2)c(=O)c2ccccc21,inactive,
C=CCOc1cccc(C2C(C(=O)c3ccco3)=C(O)C(=O)N2Cc2ccco2)c1 (stereo unspecified),active: 44.7 µM,
CCOC(=O)C1=C(c2ccccc2)NC(=S)NC1c1cc([N+](=O)[O-])ccc1OC (stereo unspecified),active: 39.8 µM,
CCOc1ccccc1NC(=O)CSc1nc2ccccc2nc1N1CCCC1,inactive,
CSCCC(NC(=O)[C@@H](NC(=O)c1ccc(F)cc1)C(C)C)c1nnc2ccccn12 (stereo partly specified),"inconclusive: 126 µM [inhibitor, partial curve, poor fit]",
O=C(N[C@@H]1CCC(=O)N(CC[C@H](Sc2ccc(Br)cc2)c2ccccc2)CC1)OCc1ccccc1,"inconclusive: 39.8 µM [inhibitor, partial curve, poor fit]",
O=C(Nc1ccc2ccccc2n1)c1ccc(S(=O)(=O)N2CCCCC2)cc1,inactive,
Cc1ccc2nc(-c3ccc(NC(=O)CN(c4ccccc4C)S(C)(=O)=O)cc3)sc2c1,inactive,
COc1ccc(OC)c(CCNC(=O)c2cc3cccc4c3n2CCS4)c1,"inconclusive: 112 µM [inhibitor, partial curve, poor fit]",
Cc1oc(-c2ccccc2)nc1C(=O)Nc1nc(CC(N)=O)cs1,inactive,
CN(Cc1ccc(F)cc1)c1ccc2ncc(Nc3cccc(O)c3)n2n1,inactive,

SMILES,Potency,"activity change, negative = inhibition"
CCOC(=O)C1=NNC(C(=O)c2ccccc2)C1c1ccc(Cl)cc1 (stereo unspecified),"inconclusive: 126 µM [inhibitor, partial curve, poor fit]",
COc1ccccc1NC(=O)c1cc(S(=O)(=O)N2CCC3(CC2)OCCO3)ccc1F,inactive,
CCOC(=O)C1=C(NC(=S)NC(=O)c2ccccc2)c2ccccc2CC1C(C)C (stereo unspecified),"inconclusive: 14.1 µM [inhibitor, partial curve, poor fit]",
O=C1CC(c2ccccc2)CC(=O)C1Sc1ccc(Cl)cc1 (stereo unspecified),"inconclusive: 44.7 µM [inhibitor, partial curve, poor fit]",
O=C(CCCCCBr)N1CCC(CC2CC(c3ccc(Cl)cc3)=NO2)(C(=O)NCC2CCCCC2)CC1 (stereo unspecified),"inconclusive: 0.708 µM [inhibitor, full curve, poor fit]",
CCCn1c(=O)[nH]c(=O)c2c3c(cnc21)C(=O)CC(c1cccs1)C3 (stereo unspecified),"inconclusive: 89.1 µM [inhibitor, partial curve, poor fit]",
COc1ccc(NC(=O)c2ccc3c(c2)C2(CCCN(C)C2)CN3C)cc1 (stereo unspecified),"inconclusive: 70.8 µM [inhibitor, full curve, poor fit]",
O=C1CC(C(=O)Nc2ccc(Br)cc2)C2(CCCC2)O1 (stereo unspecified),"inconclusive: 50.1 µM [inhibitor, partial curve, poor fit]",
CCCN1C2CCCC1CC(NC(=O)c1ccccc1OCC)C2 (stereo unspecified),"inconclusive: 7.94 µM [inhibitor, partial curve, poor fit]",
CCOC(=O)c1c(C)oc2ccc(N(C(=O)c3ccncc3)S(=O)(=O)c3ccc(F)cc3)cc12,inactive,
COc1ccc(OC2(C)CCN(Cc3ccccc3OC(F)F)C2)cc1 (stereo unspecified),"inconclusive: 50.1 µM [inhibitor, partial curve, poor fit]",
C=CCn1c(-c2ccco2)n[nH]c1=S,"inconclusive: 112 µM [inhibitor, single point]",
CC(C)CC(N)c1csc(NC(=O)Nc2ccccc2C(C)(C)C)n1 (stereo unspecified),inactive,
Cc1cc(OCCN2CCN(S(=O)(=O)c3ccccc3F)CC2)ccc1C(C)C,inactive,
O=[N+]([O-])c1cccc2nc(/C=C/c3cccc(O)c3)ccc12,"inconclusive: 39.8 µM [inhibitor, partial curve, poor fit]",
O=c1oc2ccccc2c(Nc2cc3ccccc3cc2O)c1[N+](=O)[O-],"inconclusive: 56.2 µM [inhibitor, partial curve, poor fit]",
COc1ccccc1NC(=O)CSc1n[nH]c(-c2ccco2)n1,inactive,
C=CCn1c(-c2cc3cccc(OC)c3o2)n[nH]c1=S,"inconclusive: 28.2 µM [inhibitor, partial curve]",
Cc1csc2nc(O)c(C(=O)NCCN3CCOCC3)c(=O)n12,"inconclusive: 8.91 µM [inhibitor, full curve, poor fit]",
COc1ccc(C2CCCN2C(=S)Nc2ccc(C)c(C)c2)cc1OC (stereo unspecified),inactive,
Cc1cc2nc3c(nc2cc1C)C1(C(=O)O)CCC3(C)C1(C)C (stereo unspecified),inactive,
N#CC1(C#N)CC(C=O)=C(N)C1(C#N)CC(=O)c1ccc(F)cc1 (stereo unspecified),"inconclusive: 44.7 µM [inhibitor, partial curve, poor fit]",

SMILES,Potency,"activity change, negative = inhibition"
COc1cc(C=O)c(Br)cc1OC(C)C,"inconclusive: 112 µM [inhibitor, single point]",
N#Cc1ccccc1S(=O)(=O)N1CCN(C(=O)CCc2ncc(-c3c(F)cccc3F)o2)CC1,"inconclusive: 112 µM [inhibitor, single point]",
COc1ccc(C(=O)NC2CCCN(c3cc(-c4ccc(F)cc4)[nH]n3)C2)cc1 (stereo unspecified),inactive,
COC[C@@H]1CCCN1c1ccc2c(c1)O[C@H](COCc1ccccc1)CN([C@@H](C)c1ccccc1)S2(=O)=O,inactive,
Cc1ccc([N+](=O)[O-])cc1NC(=O)CCSc1ccc(Cl)cc1,inactive,
COc1ccc(C(=O)Oc2c(OC)cc(C(=S)N3CCOCC3)cc2OC)cc1OC,"inconclusive: 44.7 µM [inhibitor, partial curve, poor fit]",
COc1cccc(NC2=CC(c3ccc(C(C)C)cc3)N(c3cccc(OC)c3)C2=O)c1 (stereo unspecified),inactive,
COc1ccccc1CNc1ccnc(-c2ccccc2OC)n1,"inconclusive: 39.8 µM [inhibitor, partial curve]",
N#CC1=C(N)Oc2n[nH]c(-c3cccs3)c2C1c1ccsc1 (stereo unspecified),"inconclusive: 50.1 µM [inhibitor, partial curve, poor fit]",
NC(=S)c1ccc(C(=O)NCc2ccccc2F)cc1,"inconclusive: 126 µM [inhibitor, single point]",
Cn1c(=O)c2c(nc(CN3CCCCC3)n2CCCc2ccccc2)n(C)c1=O,"inconclusive: 89.1 µM [inhibitor, single point]",
Cc1cc(-c2n[nH]c(=S)n2/N=C/C(Cl)=C/c2ccccc2)n[nH]1,"inconclusive: 39.8 µM [inhibitor, partial curve, poor fit]",
CCOC(=O)CN1NC2(CCC(C)CC2)NC1=S (stereo unspecified),"inconclusive: 12.6 µM [inhibitor, full curve, poor fit]",
CCCCn1nnnc1C(c1ccnc2ccccc12)N1CCN(C/C=C/c2ccccc2)CC1 (stereo unspecified),"inconclusive: 44.7 µM [inhibitor, partial curve, poor fit]",
Cc1noc(C)c1COC(=O)/C=C/c1ccc(Br)o1,"inconclusive: 15.8 µM [inhibitor, full curve, poor fit]",
C=CCN(C)NC(=S)Nc1ccccc1,inactive,
Cc1c(C(=O)N(Cc2cccc(Cl)c2)Cc2ccco2)oc2ccccc12,,inconclusive: -30.7% [inhibitor]
FC(F)(F)c1cccc(N2CCN(Cc3ncc(-c4ccccc4)o3)CC2)c1,"inconclusive: 100 µM [inhibitor, partial curve, poor fit]",
CC(C)=CCCC(C)[N+]1(C)CCCCC1 (stereo unspecified),"inconclusive: 63.1 µM [inhibitor, partial curve, poor fit]",
Cc1cc(O)c2c(c1)C(=O)c1cccc(O)c1C2=O,"inconclusive: 2 µM [inhibitor, full curve, poor fit]",
COc1ccc(OC)c(/C=N/O)c1,inactive,
Cc1nc2sc(C(c3ccco3)N3CCN(c4cccc(Cl)c4)CC3)c(O)n2n1 (stereo unspecified),"inconclusive: 20 µM [inhibitor, full curve]",
